Results taken from patent publication US8846681B2, “Pyrimidyl cyclopentanes as AKT protein kinase inhibitors” (Array BioPharma, Inc., priority 2006, dated 2014).
Some of these results come from one statement about several compounds together.

Sequences of proteins named here, by UniProt entry; tags and fusion partners are left off. A change or cut given only in a name is not applied to a line headed by its entry.
UniProt P31749: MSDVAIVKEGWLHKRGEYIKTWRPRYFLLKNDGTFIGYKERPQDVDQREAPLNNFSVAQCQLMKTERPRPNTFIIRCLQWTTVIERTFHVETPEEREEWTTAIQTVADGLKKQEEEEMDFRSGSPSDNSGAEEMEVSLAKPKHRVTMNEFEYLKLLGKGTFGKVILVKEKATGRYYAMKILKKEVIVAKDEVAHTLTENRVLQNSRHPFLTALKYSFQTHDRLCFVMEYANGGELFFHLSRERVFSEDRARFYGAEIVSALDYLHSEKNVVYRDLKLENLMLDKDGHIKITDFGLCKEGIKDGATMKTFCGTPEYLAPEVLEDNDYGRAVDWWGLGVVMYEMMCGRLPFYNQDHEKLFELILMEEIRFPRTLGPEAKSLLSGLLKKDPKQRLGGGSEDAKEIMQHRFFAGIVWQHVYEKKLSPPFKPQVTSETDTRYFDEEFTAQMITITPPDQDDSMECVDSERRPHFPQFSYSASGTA

Molecular target: full-length human recombinant active AKT-1 (Homo sapiens, UniProt P31749)
Experiment: AKT-1 Kinase Assay (IMAP fluorescence polarization)
Type: biochemical
Details: phosphorylation of fluorescently-labeled peptide (Crosstide), IMAP kit

In the case of `C[C@@H]1C[C@@H](F)c2ncnc(N3CCN(C(=O)[C@H](CNC4CCOCC4)c4ccc(Br)cc4)CC3)c21` [Example 128, (S)-2-(4-bromophenyl)-1-(4-((5R,7R)-7-fluoro-5-methyl-6,7-dihydro-5H-cyclopenta[d]pyrimidin-4-yl)piperazin-1-yl)-3-(tetrahydro-2H-pyran-4-ylamino)propan-1-one], the IC50 is reported as < 10 µM.
